Literature values, collected in patent publication US20200306313A1, “METHODS AND COMPOSITIONS FOR NON-CYTOTOXIC STEM CELL TRANSPLANTATION” (THE BOARD OF REGENTS OF THE UNIVERSITY OF TEXAS SYSTEM, priority 2014, published 2020).
At least one structure is not confirmed: it was looked up by name or label, or the drawing left a doubt.

Tested on: mice
Details: cited from earlier work

## CO[C@H]1C[C@@H]2CC[C@@H](C)[C@@](O)(O2)C(=O)C(=O)N2CCCC[C@H]2C(=O)O[C@H]([C@H](C)C[C@@H]2CC[C@@H](O)[C@H](OC)C2)CC(=O)[C@H](C)/C=C(\C)[C@@H](O)[C@@H](OC)C(=O)[C@H](C)C[C@H](C)/C=C/C=C/C=C/1C [rapamycin]
  lifespan and healthspan: extend lifespans as well as healthspan
